# Results taken from the supplement of paper PMC3334620.
# The full ranking holds about 33,000 sequences; the median of “E-score (-0.5 to 0.5)” is about -0.0034, and the highest 2% start at about 0.25. The list shows a part of the results.
# Molecular target: T1, Yap3 (UniProt P38749)
# T1 sequence: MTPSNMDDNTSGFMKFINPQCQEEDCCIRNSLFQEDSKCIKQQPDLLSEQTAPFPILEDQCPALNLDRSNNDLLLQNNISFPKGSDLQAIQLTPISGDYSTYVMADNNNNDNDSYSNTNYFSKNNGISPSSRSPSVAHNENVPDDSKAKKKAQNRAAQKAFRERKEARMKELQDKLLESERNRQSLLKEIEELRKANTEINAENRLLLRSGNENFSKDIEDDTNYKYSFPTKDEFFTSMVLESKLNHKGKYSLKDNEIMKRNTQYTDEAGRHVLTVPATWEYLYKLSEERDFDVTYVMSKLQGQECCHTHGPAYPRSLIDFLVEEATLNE
# Experiment: PBM E-score (8-mer binding enrichment) (E-score (-0.5 to 0.5)); higher = stronger / more preferred TF binding
# Conditions: protein concentration: 100 nM; construct: GST-full length
# Method in brief: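 E-scores (a modified Wilcoxon-Mann-Whitney statistic) were assigned by the Universal PBM Analysis Suite to every ungapped eight-base word pooled with its reverse complement. The input came from universal all-10-mer Agilent arrays made double-stranded by primer extension and probed with GST-tagged yeast transcription factors at about 100-200 nM. Fluorescent anti-GST detected bound protein, and masliner normalised the scans.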
row,Sequence,PBM E-score
1,AAGTCTAA,-0.00741
2,GGACGGCC,-0.255
3,AACAATAT,0.329
4,ACAAACCC,0.0449
5,CACCGGAG,-0.177
6,AGGGGAGC,-0.384
7,CTAATTAA,0.135
8,AAACAATT,0.145
9,AAACGGTG,-0.00966
10,CTTAATGC,0.108
11,CATCCTTC,-0.00124
12,CGGTATAG,-0.0576
13,TACGCCCA,0.0336
14,AGTACACG,-0.124
15,GGTAACAA,0.252
16,CATACTAC,0.0922
17,AGAAACGG,0.0489
18,GCTGATTA,0.21
19,GACGCGTA,0.122
20,AGTCGCCG,-0.0223
21,AAGTTGTC,0.123
22,CAGCTCGA,-0.14

# Given with bars between the fields: entries from further up.
row | Sequence | PBM E-score
4 | ACAAACCC | 0.0449
5 | CACCGGAG | -0.177
11 | CATCCTTC | -0.00124
16 | CATACTAC | 0.0922
18 | GCTGATTA | 0.21

# Following part:

row,Sequence,PBM E-score
1,CTGTTCCC,-0.169
2,CGGGGATC,-0.418
3,GAAATCAC,0.181
4,AAAATTCT,-0.0112
5,CCGCTACC,-0.0126
6,ACCCAAAT,0.161
7,GATAGGGA,-0.0796
8,AGACACTA,0.0692
9,ATGTGGTC,0.139
10,TAAGTGCA,0.2
11,AATCATAA,0.222
12,ATGTCCCA,-0.17
13,GGATGCTA,-0.0998
14,ATTCCAAG,0.0692
15,CACTCGGA,0.0619
16,ACCCCGCT,-0.0798
17,TACCTGCA,0.0553
18,AACCACGT,-0.0393
19,ACTCCTGA,0.0624
20,GAGAAAGC,0.0794
21,CCAGTTGA,-0.118
22,GATAGATC,-0.119

row,Sequence,PBM E-score
1,AGTCAGTA,0.109
2,ATAATTTC,0.17
3,GCTCCTCA,-0.305
4,AGTCCTTC,-0.286
5,ATAGGAAA,0.211
6,GCCAAACC,-0.137
7,ATCCTATC,0.0904
8,GTGAGACA,0.105
9,ACGAACCC,-0.133
10,CCGAAGAA,-0.0268
11,TATACTCA,0.155
12,GCCGGCCA,0.0617
13,ACTCAACC,-0.00359
14,AATTCCGG,-0.00094
15,AGTCAGTC,-0.0469
16,GAGCTAAC,0.0153
17,ACCCCAAT,0.0033
18,CAAAGCAA,0.195
19,CGAGCGGC,-0.0247
20,CGATGCCG,-0.194
21,CCCATCCA,-0.104
22,AGAATTGC,0.141

row,Sequence,PBM E-score
1,CAATAACA,0.0825
2,CCAAGGAC,-0.21
3,CAAGCTGC,0.0459
4,AGTGCTAC,-0.0705
5,TCGATCAA,-0.0612
6,AGAACGCA,0.0488
7,TGAGCAAA,0.109
8,ACACCGAT,-0.138
9,CAATATAC,0.112
10,CTCGCGTC,0.0984
11,CCGGCGTC,-0.105
12,ACCGCATA,0.128
13,AGTTGACA,0.0993
14,CGTGCTTA,-0.0066
15,ACTATTCT,0.109
16,GCCATCCC,-0.192
17,CCTACATC,0.0258
18,GCTCATCA,-0.042
19,ACAGACAC,-0.0498
20,CACAAAAC,0.212
21,CCCCATCC,-0.233
22,GAATTATC,0.196

row,Sequence,PBM E-score
1,CGTGCATA,0.111
2,TTAGATAA,0.117
3,TCGGACAA,0.161
4,GACATCGC,-0.0744
5,ATAAGGTG,-0.00609
6,ATGGTCCA,-0.0556
7,CCCTAGGA,-0.166
8,AGGTACAT,-0.0473
9,CTCGTATC,0.164
10,CAACAGTC,-0.0135
11,CGGTTTCC,-0.176
12,AATCACGA,-0.0872
13,TCTGTCAA,0.0825
14,ATGTCCGC,-0.0298
15,CTGTCTGA,-0.15
16,GGTTAGAA,-0.0731
17,TACTAGAA,0.127
18,AACGGAGT,0.0613
19,ACGTAAGC,0.253
20,CGAGGTGC,0.0929
21,GCTAGCTA,-0.0775

# Random excerpt: 3 records from the list.
row,Sequence,PBM E-score
14,ATGTCCGC,-0.0298
12,AATCACGA,-0.0872
2,TTAGATAA,0.117
